By UniProt entry, the sequences of proteins in these tests, tags left out.
UniProt Q61696: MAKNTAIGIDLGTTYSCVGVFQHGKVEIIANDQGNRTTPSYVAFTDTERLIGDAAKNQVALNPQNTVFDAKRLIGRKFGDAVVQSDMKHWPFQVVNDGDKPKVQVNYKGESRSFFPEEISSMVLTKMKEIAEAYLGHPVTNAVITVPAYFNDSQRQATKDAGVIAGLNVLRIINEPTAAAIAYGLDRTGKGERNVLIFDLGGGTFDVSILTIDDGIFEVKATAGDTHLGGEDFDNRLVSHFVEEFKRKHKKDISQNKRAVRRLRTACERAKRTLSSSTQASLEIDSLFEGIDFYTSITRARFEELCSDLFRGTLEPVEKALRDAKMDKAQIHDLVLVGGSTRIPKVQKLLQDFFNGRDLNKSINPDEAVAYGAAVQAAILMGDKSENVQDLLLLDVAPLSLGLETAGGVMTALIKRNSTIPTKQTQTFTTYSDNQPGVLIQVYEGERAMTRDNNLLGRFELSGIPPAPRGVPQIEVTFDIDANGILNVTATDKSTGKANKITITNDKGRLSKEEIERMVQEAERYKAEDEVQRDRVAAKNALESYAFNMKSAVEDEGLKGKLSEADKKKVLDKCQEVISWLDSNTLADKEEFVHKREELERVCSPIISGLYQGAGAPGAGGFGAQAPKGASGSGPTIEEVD

According to paper PMC7933964:

Legend:
Testicular receptor 4 [1] = molecular target: T1, Testicular receptor 4 (UniProt P49117); test: affinity purification with mass spectrometry; immunoprecipitation of TR4 combined with LC-MS/MS; the sample of cells not treated with bexarotene; no methods given
T1 sequence: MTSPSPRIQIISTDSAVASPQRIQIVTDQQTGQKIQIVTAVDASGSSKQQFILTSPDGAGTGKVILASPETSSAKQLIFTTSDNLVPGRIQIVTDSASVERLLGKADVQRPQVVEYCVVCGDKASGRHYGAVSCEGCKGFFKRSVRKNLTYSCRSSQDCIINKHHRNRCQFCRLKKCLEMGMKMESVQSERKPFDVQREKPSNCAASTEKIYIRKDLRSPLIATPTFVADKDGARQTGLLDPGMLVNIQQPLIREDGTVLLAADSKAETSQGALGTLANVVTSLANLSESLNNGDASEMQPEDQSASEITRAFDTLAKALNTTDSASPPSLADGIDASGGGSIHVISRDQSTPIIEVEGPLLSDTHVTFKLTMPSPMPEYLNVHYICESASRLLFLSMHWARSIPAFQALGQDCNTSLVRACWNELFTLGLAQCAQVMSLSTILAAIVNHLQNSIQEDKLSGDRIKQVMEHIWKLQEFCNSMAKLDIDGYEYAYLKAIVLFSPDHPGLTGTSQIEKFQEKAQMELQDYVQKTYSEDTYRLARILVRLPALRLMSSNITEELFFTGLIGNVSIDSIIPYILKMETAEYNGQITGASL

Testicular receptor 4 [2] = molecular target: T1, Testicular receptor 4; test: affinity purification with mass spectrometry; immunoprecipitation of TR4 combined with LC-MS/MS; cells treated with and without bexarotene; no methods given

binding (Testicular receptor 4 [2]): binds
Substance: heat shock 70 kD protein 1A (from UniProt Q61696 1-641)
binding (Testicular receptor 4 [1]): no binding (only cells without bexarotene)

No constants are given. Whether binding was seen depends on the method and setting. Binding seen in cells or lysates may run through a third protein. Here binding means that the protein was enriched with, or labelled near, the bait; the list need not be complete. For some assays here: A no says only that the protein was not detected with the bait.
